# ± gives the standard deviation of the averaged measurements. The list shows a part of the results. Repeats are few or missing, and single values can be far off.
# Tested on: RAW 264.7 macrophages infected with S. aureus JE2-lux
# Assay: host macrophage viability (CellTiter-Fluor) relative to DMSO vehicle; higher = more viable host cells
# Settings: 10 µM; treatment time 4 h; gentamicin 50 µg/ml
row,SMILES,host macrophage viability [%]
1,Cc1ccc(-n2c(=O)c3oc4ccccc4c3n(CC(=O)Nc3ccccc3F)c2=O)cc1,119
2,CC(=O)Nc1cccc(NC(=O)CSc2nnc(NC(=O)Cc3ccc(F)cc3)s2)c1,111
3,O=C(CS(=O)(=O)c1ccccc1)Nc1cccc2c1C(=O)c1ccccc1C2=O,111
4,O=C(CSc1ncnc2[nH]ncc12)Nc1nc(-c2ccco2)c(-c2ccco2)s1,144
5,O=C(NNc1nc2ccc(Cl)cc2s1)c1nc2ccccc2s1,95.6 ± 9.3
6,Cc1cccc(N2CCN(C(=O)c3cc(CN4CCOCC4)on3)CC2C)c1 (centres undefined),136
7,O=C(c1ccccc1)N1N=C(c2ccc(O)cc2)CC1c1ccco1 (centres undefined),119
8,NC(=O)C1CCN(C(=O)Cc2cc(=O)[nH]c(=O)[nH]2)CC1,106
9,COc1ccc(NC(=O)c2ccccc2NS(=O)(=O)c2ccc(F)cc2)c([N+](=O)[O-])c1,84.6
10,Cc1nc(C)c(C(=O)N2CCN(S(=O)(=O)c3c(C)nn(Cc4ccccc4)c3C)CC2)s1,117
11,COc1ccc(-c2nc3c(C)cccn3c2NCc2ccc3c(c2)OCO3)cc1OC,106
12,Cc1cccc(CNC(=O)c2nn(C)c3c2CN(S(=O)(=O)c2cn(C)cn2)CC3)c1,116
13,CCCCNC(=O)c1cnc(N2CCOCC2)nc1C,91.2
14,O=C(CSc1cc[nH]c(=O)n1)NCc1ccccc1,102
15,Cc1ccn2c(=O)c(C(=O)NCCCN3CC(C)CC(C)C3)c(O)nc2c1 (centres undefined),118
16,CCCNC(=O)CCc1c(C)[nH]c2nc(NCc3cccs3)nn2c1=O,105
17,Cc1ccc(SCc2cc(=O)[nH]c(N3CCN(c4ccccc4)CC3)n2)cc1,109
18,COC(=O)c1c(NC(=O)CC2Sc3ccccc3NC2=O)sc2c1CCC(C(C)(C)C)C2 (centres undefined),116
19,COc1cccc(Nc2nc(N3CCOCC3)c3cnn(C)c3n2)c1,122
20,CCc1ccccc1NC(=O)NC1CC(=O)N(c2cccc(OC)c2)C1 (centres undefined),109
21,Cc1cccc(N2CCN(S(=O)(=O)c3cc(-c4ccno4)oc3C)CC2C)c1 (centres undefined),112
22,O=C(O)C(Cc1c[nH]cn1)N1C(=O)c2cccc([N+](=O)[O-])c2C1=O (centres undefined),124
23,CCCc1n[nH]c2c1C(C1CC=CCC1)C(C#N)=C(N)O2 (centres undefined),99.1
24,CCOC(=O)c1[nH]c2ccccc2c1NC(=O)c1cc(Cl)ccc1OC,114
25,COc1ccccc1NC(=O)C1CCN(c2cnccn2)CC1,112
26,Cc1ccc(OCC(O)Cn2c(NCCCO)nc3c2c(=O)n(C)c(=O)n3C)cc1C (centres undefined),119

row,SMILES,host macrophage viability [%]
1,O=C(Nc1ccccc1Cl)C1CCN(C(=O)Nc2ccccc2)CC1,109
2,NC(=O)c1nc(-c2ccoc2)nc2c1[nH]c(=O)n2-c1ccc(Cl)cc1,132
3,O=C(CSc1nccc2ccccc12)NC1CCCOC1 (centres undefined),116
4,Cc1ccc(-c2csc(-c3cccn3CC(=O)N3CCN(c4cccc(C)c4)C(C)C3)n2)cc1 (centres undefined),109
5,COCc1c(Br)c(C)nc(OCC(=O)N/N=C/c2ccccc2O)c1C#N,106
6,COc1ccccc1NC(=O)CSc1ncnc2c1oc1ccccc12,134
7,O=c1ccn(-c2nc(-c3ccccc3)sc2-c2ccccc2)c(=O)[nH]1,109
8,COc1ccc(-c2noc(N3CCC(C(=O)N(C)c4ccc(F)cc4)CC3)n2)cc1,121
9,O=C(CSc1nc(-c2ccc(F)cc2)nc2c1Cc1ccccc1O2)Nc1ccc(C(=O)O)cc1,120
10,COc1ccc(-c2nn(-c3ccccc3)cc2CNC(=O)/C=C/C(=O)O)cc1,106
11,Cc1ccc(NC(=O)CSc2nnc(-c3cccnc3)n2N)cc1Cl,131
12,O=C(NNc1nc2ccc(F)cc2s1)c1ccc(S(=O)(=O)N2CCc3ccccc3C2)cc1,140 ± 2.4
13,COc1ccc(NC(=O)CSc2nnc3[nH]c(=O)ccn23)c(OC)c1,120
14,Cc1ccc(-c2nnc3ccccc3c2C(=O)Nc2ccccc2Cl)cc1,117
15,COc1ccccc1NC(=O)Nc1nc(-c2cccnc2)nc2ccccc12,104
16,Cc1nc(-n2nc(C)c(Cc3ccccc3)c2O)sc1C(=O)NC(C)C,105
17,COC(=O)c1c(-c2cccc(F)c2)noc1NCc1ccc(F)cc1,105
18,COc1cccc(-n2nnc3c(N4CCN(C(=O)COc5ccc(Cl)cc5)CC4)ncnc32)c1,104
19,Cc1n[nH]c2c1C(c1ccc(-c3cccc([N+](=O)[O-])c3)o1)C(C#N)=C(N)O2 (centres undefined),88.4
20,CC(C)c1ccc(C2C(C#N)=C(SCC(N)=O)NC3=C2C(=O)CCC3)cc1 (centres undefined),102
21,Cc1ccc(OCC(=O)N/N=C2/C(=O)Nc3c(Br)cc(Br)cc32)cc1,106
22,COc1ccc(C(=O)Nc2nc3ccc(S(=O)(=O)N4CCCC4)cc3s2)c(OC)c1,117
23,Cn1c(=O)c2c(nc(CN3CCOCC3)n2CC(=O)C(C)(C)C)n(C)c1=O,113
24,COc1ccc(C(NC(=O)c2cc(-c3ccccn3)n[nH]2)c2ccncc2)cc1 (centres undefined),111
25,CC(C(=O)c1ccc(Cl)cc1)C1(O)C(=O)Nc2ccccc21 (centres undefined),108
26,O=C(CSc1ncnc2ccccc12)NC1CCCCC1,112 ± 6.8

row,SMILES,host macrophage viability [%]
1,Cc1cc(SCC(=O)NC2CCCCC2)nc(=O)[nH]1,116
2,O=C(Cn1nc(-c2ccoc2)oc1=O)NC1CCCCC1,122
3,COC(=O)N1CCc2c(sc(NC(=O)c3cccc(N4C(=O)CCC4=O)c3)c2C(N)=O)C1,120
4,COc1ccc(/C=C/C(=O)Nc2ccc(S(=O)(=O)N3CCc4ccccc43)cc2)cc1,122
5,Nc1ccc(-c2ccc(N)c([N+](=O)[O-])c2)cc1[N+](=O)[O-],98.5 ± 2.3
6,COc1ccc(-n2nnc3c(N4CCN(C(=O)C(=O)c5c[nH]c6ccccc56)CC4)ncnc32)cc1,130
7,CNc1nnc(CSc2nc(C)cc(C)n2)s1,129
8,O=C(CCn1c(=O)oc2ccccc21)NCCC1=CCCCC1,98 ± 4.8
9,COc1ccccc1C(=O)Nc1ncc(S(=O)(=O)c2ccc([N+](=O)[O-])cc2)s1,94.2
10,CCC(=O)Nc1c(-c2ccccc2)c2cc(Br)ccc2[nH]c1=O,124
11,Cc1ccc(S(=O)(=O)NC(=N)NCCc2c(C)[nH]c3ccc(C)cc23)cc1,126
12,Cc1ccc(Nc2c(C(=O)NCc3ccco3)cnc3c2c(C)nn3C)cc1,119
13,C=CCOc1ccc(C2CC(=O)Nc3c2cnn3-c2nc3ccccc3s2)cc1OCC (centres undefined),103
14,Cc1nc2c(c(=O)n1CC(=O)Nc1ccc(F)cc1)CCN(Cc1ccccc1)C2,98.2
15,O=C1Nc2ccccc2/C1=C1/SC(=S)N(c2ccccc2F)C1=O,120
16,Fc1ccc2ncc3c(-c4ccccc4)n[nH]c3c2c1,126
17,CCc1ccc(NC(=O)CSc2nc(-c3ccc(C(C)C)cc3)no2)cc1,105
18,Cc1c(NS(=O)(=O)c2ccc(Cl)cc2)c(-n2cnnc2)nn1C,108
19,COc1ccccc1NC(=O)CSc1nnc2cc(C)c3ccccc3n12,123
20,COc1ccc(Cl)cc1NC(=O)c1cccn(OCc2ccccc2F)c1=O,128
21,COCCNC(=O)CSc1nc(-c2ccccc2)nc2ccc(Cl)cc12,101
22,Cc1ccc(-c2cc(C(F)(F)F)n3nc(C(=O)Nc4ccc5c(c4)OCO5)nc3n2)cc1,136
23,Cc1ccc(NC(=O)c2cc3c(CO)cnc(C)c3o/c2=N\c2cccc3ccccc23)cc1C,111
24,CC1(C)Oc2ccc(NC(=O)COc3ccc(CN4CCCC4)cc3)cc2O1,106
25,Cc1cc2c(=O)n(CC(=O)N3CCC(O)(c4ccccc4C)CC3)cnc2s1,89.7
26,COc1cccc(C(=O)Nc2cccc(-c3nc4ncccc4o3)c2)c1,109

# Individual results from above.
# For host macrophage viability [%], O=C(CCn1c(=O)oc2ccccc21)NCCC1=CCCCC1 is listed with 98 ± 4.8
# For host macrophage viability [%], Cc1cc2c(=O)n(CC(=O)N3CCC(O)(c4ccccc4C)CC3)cnc2s1 is listed with 89.7
# For host macrophage viability [%], COCCNC(=O)CSc1nc(-c2ccccc2)nc2ccc(Cl)cc12 is listed with 101

# Next part:

row,SMILES,host macrophage viability [%]
1,Cc1nc(Nc2ccc(NC(=O)Nc3cccc(C(F)(F)F)c3)cc2)cc(N2CCOCC2)n1,117
2,CC(C)(C)c1nc(SCC(=O)Nc2ccc3c(c2)OCO3)c2ccccc2n1,116
3,Cc1ccc(F)cc1Nc1ncnc(N)c1[N+](=O)[O-],114
4,CC(C)c1ccc2nc3sc(C(=O)Nc4nccs4)c(N)c3cc2c1,130
5,Cc1ccc(C(=O)Nc2ccc3c(c2)C(=O)NC3=O)cc1C,130
6,O=C(COc1ccccc1)c1ccc(O)c(O)c1O,97.8 ± 2.2
7,CC(NC(=O)c1ncoc1-c1ccc(F)cc1)C(=O)N1CCCCC1 (centres undefined),145
8,COC(=O)C1=C(C)N(Cc2ccccc2)C(=O)NC1c1ccccc1F (centres undefined),105
9,Cc1ccc2nc(NC(=O)CSc3nc(=O)n(N4CCN(C)CC4)c4c3CCCC4)sc2c1,116
10,COc1ccc(NC(=O)CNCCO)c(OC)c1,112
11,Cc1cc2c(o1)CCc1sc(N(C)C(=O)c3cc(C(C)(C)C)nn3C)nc1-2,133
12,CCc1ccc(OCC(=O)Nc2noc(-c3ccc(C)cc3)n2)cc1,114
13,O=C(NCC1COC2(CCCCC2)O1)C(=O)Nc1ccccc1[N+](=O)[O-] (centres undefined),106
14,Clc1ccc2nc(N3CCc4ccccc4C3)sc2c1,105 ± 14
15,O=C(CSc1nc2ccc(Br)cc2c2nc3ccccc3n12)Nc1nccs1,123
16,COc1cc(OC)c(OC)cc1/C=N\NC(=O)CCC1C(=O)NN=C1C (centres undefined),102
17,Cc1ccc(NC(=O)CSc2nc3cc4c(cc3cc2C#N)OCO4)c(C)c1,139
18,Cc1[nH]c2ccccc2c1C(=O)CSc1ncnc2sc3c(c12)CCC3,119
19,CCOC(=O)c1ccccc1NC(=O)CSc1ncnc2c1cnn2-c1ccc(F)cc1,121
20,O=C(Cn1cccc1-c1nc(-c2ccc(Cl)cc2)cs1)N1CCc2ccccc21,88.7
21,C=CCc1cccc2cc(C(=O)NNC(=O)c3ccc(C)cc3)c(=O)oc12,106
22,O=C(Nc1ccc(F)cc1)/C(O)=C1\C(=O)Nc2ccc([N+](=O)[O-])cc21,120
23,COc1ccc(-c2nnc(-c3ccccc3)o2)cc1S(=O)(=O)N1CCc2ccccc2C1,123
24,Cc1cccc(Cl)c1NC(=O)CCc1nc(CSc2nc3ccccc3o2)no1,128
25,Cc1cc2c(=O)n(CC(=O)Nc3ccc(F)c(Cl)c3)cnc2s1,106
26,Cc1cccc(NC(=O)Cn2c(=O)c3cnc(-c4ccccc4)nc3n(C)c2=O)n1,117

# In the list so far, these have a CF3 group.
row,SMILES,host macrophage viability [%]
22,Cc1ccc(-c2cc(C(F)(F)F)n3nc(C(=O)Nc4ccc5c(c4)OCO5)nc3n2)cc1,136
1,Cc1nc(Nc2ccc(NC(=O)Nc3cccc(C(F)(F)F)c3)cc2)cc(N2CCOCC2)n1,117
